Test results published in article doi:10.1101/2024.12.04.624804.
Where two headings read alike, the source gives them in different places. Results are given in words; binding and its absence hold for the method and conditions named. Binding seen in cells or lysates may run through a third protein. Some entries that bind do so weakly or less than the wild type.

By UniProt entry, the sequences of proteins in these tests, tags left out.
UniProt O95197, whole entry: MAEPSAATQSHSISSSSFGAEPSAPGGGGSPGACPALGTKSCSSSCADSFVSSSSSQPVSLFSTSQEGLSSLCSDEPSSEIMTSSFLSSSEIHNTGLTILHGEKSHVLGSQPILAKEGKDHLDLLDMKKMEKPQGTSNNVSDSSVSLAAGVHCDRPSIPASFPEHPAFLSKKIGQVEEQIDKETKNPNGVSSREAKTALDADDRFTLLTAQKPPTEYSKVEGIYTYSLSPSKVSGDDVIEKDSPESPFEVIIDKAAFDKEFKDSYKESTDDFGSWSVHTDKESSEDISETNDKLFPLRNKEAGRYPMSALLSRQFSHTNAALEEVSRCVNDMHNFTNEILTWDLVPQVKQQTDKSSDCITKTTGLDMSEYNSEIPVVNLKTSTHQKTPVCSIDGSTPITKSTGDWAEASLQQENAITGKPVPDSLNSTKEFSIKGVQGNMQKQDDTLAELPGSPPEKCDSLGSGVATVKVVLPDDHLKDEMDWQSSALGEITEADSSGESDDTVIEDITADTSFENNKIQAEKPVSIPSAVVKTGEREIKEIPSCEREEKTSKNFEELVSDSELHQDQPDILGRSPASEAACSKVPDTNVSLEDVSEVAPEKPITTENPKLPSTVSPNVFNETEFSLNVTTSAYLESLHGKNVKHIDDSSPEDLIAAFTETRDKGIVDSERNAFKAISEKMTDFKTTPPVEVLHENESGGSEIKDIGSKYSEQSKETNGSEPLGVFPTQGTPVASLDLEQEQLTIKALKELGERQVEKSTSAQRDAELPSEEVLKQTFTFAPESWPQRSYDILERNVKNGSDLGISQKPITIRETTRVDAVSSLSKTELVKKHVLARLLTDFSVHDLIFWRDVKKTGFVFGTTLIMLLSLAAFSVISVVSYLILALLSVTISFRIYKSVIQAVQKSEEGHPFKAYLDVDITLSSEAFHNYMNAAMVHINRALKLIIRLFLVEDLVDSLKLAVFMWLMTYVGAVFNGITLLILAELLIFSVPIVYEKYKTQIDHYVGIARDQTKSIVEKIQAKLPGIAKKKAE

B1: NDP52 (protein, UniProt Q13137 1-446)
chain: MEETIKDPPTSAVLLDHCHFSQVIFNSVEKFYIPGGDVTCHYTFTQHFIPRRKDWIGIFRVGWKTTREYYTFMWVTLPIDLNNKSAKQQEVQFKAYYLPKDDEYYQFCYVDEDGVVRGASIPFQFRPENEEDILVVTTQGEVEEIEQHNKELCKENQELKDSCISLQKQNSDMQAELQKKQEELETLQSINKKLELKVKEQKDYWETELLQLKEQNQKMSSENEKMGIRVDQLQAQLSTQEKEMEKLVQGDQDKTEQLEQLKKENDHLFLSLTEQRKDQKKLEQTVEQMKQNETTAMKKQQELMDENFDLSKRLSENEIICNALQRQKERLEGENDLLKRENSRLLSYMGLDFNSLPYQVPTSDEGGARQNPGLAYGNPYSGIQESSSPSPLSIKKCPICKADDICDHTLEQQQMQPLCFNCPICDKIFPATEKQIFEDHVFCHSL

Columns and labels:
[1] = molecular target: Flag-tagged SARS-CoV-2 membrane protein M (SARS-CoV-2) (UniProt P0DTC5); test: co-IP
[2] = molecular target: Flag-tagged SARS-CoV-2 membrane protein M (SARS-CoV-2) (UniProt P0DTC5); test: co-IP; remark: listed apart in the source

Molecule | binding [1] | binding [2]
RTN3 (from UniProt O95197 1-1032) | binds | 
s-tag-fused SARS-CoV-2 envelope protein E (from UniProt P0DTC4 1-75) | binds | 
B1 |  | binds
